Experimental data: PubChem BioAssay AID1259308 (NCATS, 2017)
Here is one part, drawn at random, of about 59,000 reagents. About 1,510 of them (2.6%) count as active. 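Calls use total luciferase alone and ignore viability, so some active siRNAs may act by altering cell number.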 A number with no mark means an inactive call. The numbers tell different reagents against one gene apart. Not all columns of the deposit are shown.

Screen: 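Knock-downs that increase output of a recombinant reporter protein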 (primary screen)
Cell system: human HEK293 embryonic kidney cells stably expressing firefly luciferase (HEK-CMV-Luc2-Hygro)
Reagents: single siRNA against human genes, 0.8 pmol siRNA per well
Time to read-out: 72 h
Measured: 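Luciferase light (ONE-Glo) measured on one replicate plate set and viability (CellTiter-Glo) on the other, scaled to a negative control siRNA, with robust z-scores and luciferase per cell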
Direction: total luciferase, z-score and total luciferase, % of control: higher = more reporter protein produced
Active means: 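An siRNA counts as active if its total luciferase robust z-score exceeds 3; genes with two or more such siRNAs out of three were retested with fresh siRNAs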
Calls: active = raised luciferase; inactive = no rise

TMEM139 #1 gave total luciferase, z-score -0.000877; total luciferase, % of control 81.9.
For TMEM139 #2, the entry reads total luciferase, z-score -1.32; total luciferase, % of control 55.7.
With knock-down of TMEM139 #3 the results were total luciferase, z-score -0.521; total luciferase, % of control 71.5.
After knock-down of NWD2 #1 the results were total luciferase, z-score 2.78; total luciferase, % of control 137.
With knock-down of NWD2 #2, the screen gave total luciferase, z-score 0.118; total luciferase, % of control 84.2.
With knock-down of NWD2 #3, the record shows total luciferase, z-score -1.34; total luciferase, % of control 55.2.
Depletion of ZNF701 #1 gave: total luciferase, z-score 1.13; total luciferase, % of control 104.
With knock-down of ZNF701 #2 the results were total luciferase, z-score 0.177; total luciferase, % of control 85.4.
Knock-down of ZNF701 #3 gave: total luciferase, z-score -0.721; total luciferase, % of control 67.5.
Depletion of DARS1 #1 gave: total luciferase, z-score -1.79; total luciferase, % of control 46.3.
DARS1 #2 showed total luciferase, z-score 0.161; total luciferase, % of control 85.1.
DARS1 #3 gave total luciferase, z-score -1.31; total luciferase, % of control 55.8.
TSPAN16 #1 gave total luciferase, z-score -1.42; total luciferase, % of control 53.6.
After knock-down of TSPAN16 #2 the results were total luciferase, z-score -0.534; total luciferase, % of control 71.3.
Knock-down of TSPAN16 #3 resulted in: total luciferase, z-score -0.184; total luciferase, % of control 78.2.

Already shown: entries from further up.
TMEM139 #1 → total luciferase, z-score = -0.000877; total luciferase, % of control = 81.9
TMEM139 #2 → total luciferase, z-score = -1.32; total luciferase, % of control = 55.7
TMEM139 #3 → total luciferase, z-score = -0.521; total luciferase, % of control = 71.5
NWD2 #1 → total luciferase, z-score = 2.78; total luciferase, % of control = 137
NWD2 #2 → total luciferase, z-score = 0.118; total luciferase, % of control = 84.2

The list goes on.
Against FABP9 #1, the values are total luciferase, z-score -0.207; total luciferase, % of control 77.8.
FABP9 #2 gave total luciferase, z-score -0.906; total luciferase, % of control 63.9.
Silencing of FABP9 #3 gave: total luciferase, z-score -0.306; total luciferase, % of control 75.8.
Depletion of VN1R4 #1 came out at: total luciferase, z-score 2.52; total luciferase, % of control 132.
VN1R4 #2 gave total luciferase, z-score -1.74; total luciferase, % of control 47.2.
With knock-down of VN1R4 #3, the screen gave total luciferase, z-score 0.567; total luciferase, % of control 93.2.
After knock-down of PLCD1 #1, the screen gave total luciferase, z-score 1.15; total luciferase, % of control 105.
Knock-down of PLCD1 #2 gave: total luciferase, z-score 0.542; total luciferase, % of control 92.7.
After knock-down of PLCD1 #3, the screen gave total luciferase, z-score -0.0977; total luciferase, % of control 79.9.
MIR4453HG #1 showed total luciferase, z-score 0.125; total luciferase, % of control 84.4.
Against MIR4453HG #2, the entry reads total luciferase, z-score 0.322; total luciferase, % of control 88.3.
Silencing of MIR4453HG #3 came out at: total luciferase, z-score 2.48; total luciferase, % of control 131.
For PPRC1 #1, the values are total luciferase, z-score 1.75; total luciferase, % of control 117.
With knock-down of PPRC1 #2 the results were total luciferase, z-score -0.571; total luciferase, % of control 70.5.
With knock-down of PPRC1 #3, the record shows total luciferase, z-score 0.188; total luciferase, % of control 85.6.
For DGAT2L7P #1, the entry reads total luciferase, z-score 0.058; total luciferase, % of control 83.
For DGAT2L7P #2 the deposit lists total luciferase, z-score -0.159; total luciferase, % of control 78.7.
With knock-down of DGAT2L7P #3, the screen gave total luciferase, z-score -1.64; total luciferase, % of control 49.2.
